We go through 5 substances from article PMC4392834.

Chains of the proteins cited; added tags and fusions are not shown.
UniProt P09632: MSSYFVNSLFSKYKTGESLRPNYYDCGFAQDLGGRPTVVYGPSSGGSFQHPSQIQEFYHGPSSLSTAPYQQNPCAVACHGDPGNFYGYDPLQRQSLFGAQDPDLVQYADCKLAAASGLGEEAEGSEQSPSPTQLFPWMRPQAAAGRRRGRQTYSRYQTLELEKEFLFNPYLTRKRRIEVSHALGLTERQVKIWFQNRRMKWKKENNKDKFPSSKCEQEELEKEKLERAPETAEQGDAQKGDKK
UniProt P09077: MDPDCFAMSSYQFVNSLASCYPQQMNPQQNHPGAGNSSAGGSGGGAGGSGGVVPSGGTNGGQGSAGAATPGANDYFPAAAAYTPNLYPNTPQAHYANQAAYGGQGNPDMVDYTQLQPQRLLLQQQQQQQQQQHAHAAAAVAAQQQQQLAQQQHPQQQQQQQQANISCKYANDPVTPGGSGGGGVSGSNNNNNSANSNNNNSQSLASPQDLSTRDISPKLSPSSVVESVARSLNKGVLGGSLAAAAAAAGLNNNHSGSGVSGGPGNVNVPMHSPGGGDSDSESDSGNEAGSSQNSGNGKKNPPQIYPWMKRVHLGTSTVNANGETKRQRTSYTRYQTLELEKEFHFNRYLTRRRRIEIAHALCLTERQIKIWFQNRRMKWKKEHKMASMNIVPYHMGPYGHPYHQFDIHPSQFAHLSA
UniProt P29555: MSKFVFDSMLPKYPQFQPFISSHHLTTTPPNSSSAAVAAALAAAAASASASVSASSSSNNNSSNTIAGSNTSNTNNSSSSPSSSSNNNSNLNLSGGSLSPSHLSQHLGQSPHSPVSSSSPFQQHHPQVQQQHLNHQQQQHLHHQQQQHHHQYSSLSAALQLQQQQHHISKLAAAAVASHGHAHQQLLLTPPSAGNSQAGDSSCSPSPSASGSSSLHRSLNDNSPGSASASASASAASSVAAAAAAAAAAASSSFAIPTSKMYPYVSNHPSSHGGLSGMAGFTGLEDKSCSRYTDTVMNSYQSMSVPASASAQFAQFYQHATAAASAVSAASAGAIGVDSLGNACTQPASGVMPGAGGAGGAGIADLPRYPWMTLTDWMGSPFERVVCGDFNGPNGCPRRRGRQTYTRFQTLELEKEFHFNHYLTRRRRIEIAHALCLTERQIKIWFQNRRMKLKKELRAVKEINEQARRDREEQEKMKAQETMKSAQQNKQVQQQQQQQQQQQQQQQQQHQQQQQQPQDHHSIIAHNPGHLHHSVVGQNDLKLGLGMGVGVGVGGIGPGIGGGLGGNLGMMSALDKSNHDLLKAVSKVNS
UniProt P83949: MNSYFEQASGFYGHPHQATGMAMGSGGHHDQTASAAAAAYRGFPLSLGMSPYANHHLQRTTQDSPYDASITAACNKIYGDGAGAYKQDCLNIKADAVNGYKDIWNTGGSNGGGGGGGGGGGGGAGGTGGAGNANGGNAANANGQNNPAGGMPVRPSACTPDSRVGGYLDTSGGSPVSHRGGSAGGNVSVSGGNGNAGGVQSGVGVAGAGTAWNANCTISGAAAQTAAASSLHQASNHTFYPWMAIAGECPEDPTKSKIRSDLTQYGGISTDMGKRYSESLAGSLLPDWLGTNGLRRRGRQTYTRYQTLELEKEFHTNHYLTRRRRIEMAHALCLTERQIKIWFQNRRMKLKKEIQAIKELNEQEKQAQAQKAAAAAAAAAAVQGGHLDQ
UniProt P02833: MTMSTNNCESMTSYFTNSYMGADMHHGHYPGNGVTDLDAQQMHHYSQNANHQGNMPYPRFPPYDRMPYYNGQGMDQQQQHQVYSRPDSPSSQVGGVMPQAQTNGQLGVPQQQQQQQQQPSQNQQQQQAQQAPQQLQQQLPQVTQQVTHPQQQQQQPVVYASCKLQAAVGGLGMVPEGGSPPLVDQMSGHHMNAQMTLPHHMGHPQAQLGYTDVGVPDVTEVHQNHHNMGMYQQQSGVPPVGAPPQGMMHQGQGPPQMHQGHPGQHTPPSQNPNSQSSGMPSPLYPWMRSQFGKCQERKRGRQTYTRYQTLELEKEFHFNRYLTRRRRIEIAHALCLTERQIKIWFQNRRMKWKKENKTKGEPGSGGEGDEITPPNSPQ
UniProt P28159: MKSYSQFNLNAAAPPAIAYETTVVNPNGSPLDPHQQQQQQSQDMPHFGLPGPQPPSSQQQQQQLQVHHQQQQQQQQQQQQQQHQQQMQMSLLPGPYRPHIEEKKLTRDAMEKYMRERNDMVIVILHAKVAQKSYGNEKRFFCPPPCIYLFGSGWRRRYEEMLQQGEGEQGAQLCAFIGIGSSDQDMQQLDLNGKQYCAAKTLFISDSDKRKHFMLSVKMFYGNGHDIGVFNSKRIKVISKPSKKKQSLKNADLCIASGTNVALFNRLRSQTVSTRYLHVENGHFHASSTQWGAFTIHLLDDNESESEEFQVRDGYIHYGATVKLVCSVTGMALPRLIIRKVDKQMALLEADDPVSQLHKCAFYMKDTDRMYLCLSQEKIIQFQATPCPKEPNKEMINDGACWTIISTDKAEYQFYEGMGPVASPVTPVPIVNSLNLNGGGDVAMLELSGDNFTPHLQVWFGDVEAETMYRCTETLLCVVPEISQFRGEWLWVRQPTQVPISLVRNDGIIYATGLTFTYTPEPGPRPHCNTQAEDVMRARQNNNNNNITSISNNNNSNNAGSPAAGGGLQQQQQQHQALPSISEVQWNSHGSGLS
UniProt P06602: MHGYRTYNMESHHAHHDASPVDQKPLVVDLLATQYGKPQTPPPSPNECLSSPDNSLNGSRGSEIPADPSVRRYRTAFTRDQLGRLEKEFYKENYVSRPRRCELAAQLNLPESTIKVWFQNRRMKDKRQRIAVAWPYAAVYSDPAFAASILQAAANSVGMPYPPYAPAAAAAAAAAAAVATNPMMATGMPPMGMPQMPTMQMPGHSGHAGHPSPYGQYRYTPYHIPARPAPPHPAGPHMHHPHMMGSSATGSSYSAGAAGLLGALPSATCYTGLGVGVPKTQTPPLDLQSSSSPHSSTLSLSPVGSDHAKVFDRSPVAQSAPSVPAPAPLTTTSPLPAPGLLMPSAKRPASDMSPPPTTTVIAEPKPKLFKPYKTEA
UniProt P07247: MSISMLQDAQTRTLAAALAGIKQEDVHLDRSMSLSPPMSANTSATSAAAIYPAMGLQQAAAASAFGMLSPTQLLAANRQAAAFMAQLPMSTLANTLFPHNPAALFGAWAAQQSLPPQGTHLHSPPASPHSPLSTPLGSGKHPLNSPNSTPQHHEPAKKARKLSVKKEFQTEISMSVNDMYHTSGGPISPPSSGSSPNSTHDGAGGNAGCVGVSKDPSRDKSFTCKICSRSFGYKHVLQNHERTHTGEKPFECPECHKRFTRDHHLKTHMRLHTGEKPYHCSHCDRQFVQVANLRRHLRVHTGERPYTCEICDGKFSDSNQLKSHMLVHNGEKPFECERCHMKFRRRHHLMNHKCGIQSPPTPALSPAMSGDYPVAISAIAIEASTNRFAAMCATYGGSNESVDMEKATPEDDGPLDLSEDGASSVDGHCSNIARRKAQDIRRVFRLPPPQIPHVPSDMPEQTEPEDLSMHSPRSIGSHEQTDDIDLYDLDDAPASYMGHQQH
UniProt P20009: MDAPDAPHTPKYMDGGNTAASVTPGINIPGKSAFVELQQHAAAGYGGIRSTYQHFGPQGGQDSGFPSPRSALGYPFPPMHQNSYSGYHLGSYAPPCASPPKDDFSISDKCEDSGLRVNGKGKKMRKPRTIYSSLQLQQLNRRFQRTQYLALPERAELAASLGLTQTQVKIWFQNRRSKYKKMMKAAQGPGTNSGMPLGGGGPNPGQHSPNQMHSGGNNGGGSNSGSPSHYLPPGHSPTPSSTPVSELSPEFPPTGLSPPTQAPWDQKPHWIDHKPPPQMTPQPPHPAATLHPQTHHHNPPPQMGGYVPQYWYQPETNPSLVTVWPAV
UniProt P52168: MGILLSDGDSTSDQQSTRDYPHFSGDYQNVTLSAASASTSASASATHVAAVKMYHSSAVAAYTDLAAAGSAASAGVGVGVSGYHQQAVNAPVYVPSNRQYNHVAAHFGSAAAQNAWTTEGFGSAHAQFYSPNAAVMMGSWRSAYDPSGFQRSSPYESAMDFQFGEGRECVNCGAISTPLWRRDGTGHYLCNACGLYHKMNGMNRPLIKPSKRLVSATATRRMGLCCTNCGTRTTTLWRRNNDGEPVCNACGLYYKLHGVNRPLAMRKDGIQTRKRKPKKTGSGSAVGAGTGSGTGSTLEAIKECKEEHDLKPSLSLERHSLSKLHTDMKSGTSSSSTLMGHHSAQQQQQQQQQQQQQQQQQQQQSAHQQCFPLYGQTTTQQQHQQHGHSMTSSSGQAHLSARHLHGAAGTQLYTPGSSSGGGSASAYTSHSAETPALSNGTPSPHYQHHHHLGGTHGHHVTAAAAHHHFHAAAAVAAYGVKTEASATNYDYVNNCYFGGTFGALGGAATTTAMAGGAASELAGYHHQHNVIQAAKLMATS

The target in assay [1] is HoxB8 (VC fusion) (mouse) (UniProt P09632). The assay can be described thus: split reporter; Venus BiFC: VC-Hox and VN-TF co-expressed in live Drosophila embryos with the corresponding Hox-Gal4 driver (abdA-Gal4 for AbdA); epidermis, stage 10-12, quantified at stage 10; affected if equal or lower than 50% of wild type, stronger if 120% or more.
Assay [2] addresses VC-Scr (Drosophila melanogaster) (UniProt P09077). Described as above.
Assay [3] deals with AbdA-HA (Drosophila melanogaster) (UniProt P29555). In words: co-IP; S2 cells transfected with AbdA-HA, actin-Gal4 and the VN-cofactor; nuclear extracts; ip with anti-HA, VN-cofactor revealed with anti-GFP.
Assay [4] concerns the target VC-Ubx (Drosophila melanogaster) (UniProt P83949). The assay can be described thus: split reporter; Venus BiFC: VC-Hox and VN-TF co-expressed in live Drosophila embryos with the corresponding Hox-Gal4 driver (abdA-Gal4 for AbdA); epidermis, stage 10-12, quantified at stage 10; affected if equal or lower than 50% of wild type, stronger if 120% or more.
Assay [5] concerns the target VC-AbdB (Drosophila melanogaster) (UniProt P09087). The assay is described as above.
Assay [6] addresses VC-Antp (Drosophila melanogaster) (UniProt P02833). The assay is described as above.
For assay [7], the target named is VC-AbdA (Drosophila melanogaster) (UniProt P29555). The assay is described as above.

These are yes or no findings as the source states them, for the method shown. In cells and extracts the contact can be indirect. Some binding calls cover weakened binding; strength is not graded here.

In the case of “VN-Suppressor-of-Hairless (from UniProt P28159 1-594)”, in assay [1], the binding result is reported as “no binding”.

Regarding “VN-Even skipped (from UniProt P06602 1-376)”, the binding result in assay [2] is given as “no binding”.

Turning to VN-Kr (from UniProt P07247 1-502), in assay [3], the binding result was “binds”.

Take “VN-Distal-less (from UniProt P20009 1-327)”: the binding result in assay [2], in assay [4] and in assay [5] was “no binding” in each case.

As to VN-Pannier (from UniProt P52168 1-540), the binding result is on record as “no binding” in assay [6], “no binding” in assay [4] and “binds” in assay [7].
